Experimental findings from the supplement of paper PMC12067093, “Discovery and optimisation of a covalent ligand for TRIM25 and its application to targeted protein ubiquitination” (Chemical Science, 2025) are described below.

Protein sequences, listed by entry. Tags and fused reporters are not part of them. Lines headed by an entry give the natural chain unless they say otherwise; changes in a name come on top.
UniProt Q16222: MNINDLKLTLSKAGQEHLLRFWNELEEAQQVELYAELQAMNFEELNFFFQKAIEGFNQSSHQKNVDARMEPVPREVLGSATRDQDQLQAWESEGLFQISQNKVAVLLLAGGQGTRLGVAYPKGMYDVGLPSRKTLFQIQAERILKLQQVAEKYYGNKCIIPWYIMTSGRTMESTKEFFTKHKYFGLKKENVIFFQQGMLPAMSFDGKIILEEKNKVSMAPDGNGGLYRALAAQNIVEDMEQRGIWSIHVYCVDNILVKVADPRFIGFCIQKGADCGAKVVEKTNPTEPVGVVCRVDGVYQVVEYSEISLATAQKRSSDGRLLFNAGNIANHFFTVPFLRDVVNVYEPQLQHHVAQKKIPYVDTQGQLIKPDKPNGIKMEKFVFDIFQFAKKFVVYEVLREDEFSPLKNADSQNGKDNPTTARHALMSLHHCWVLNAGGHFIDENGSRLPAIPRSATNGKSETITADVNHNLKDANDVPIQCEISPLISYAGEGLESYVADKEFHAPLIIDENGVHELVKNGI
UniProt Q9NZ09: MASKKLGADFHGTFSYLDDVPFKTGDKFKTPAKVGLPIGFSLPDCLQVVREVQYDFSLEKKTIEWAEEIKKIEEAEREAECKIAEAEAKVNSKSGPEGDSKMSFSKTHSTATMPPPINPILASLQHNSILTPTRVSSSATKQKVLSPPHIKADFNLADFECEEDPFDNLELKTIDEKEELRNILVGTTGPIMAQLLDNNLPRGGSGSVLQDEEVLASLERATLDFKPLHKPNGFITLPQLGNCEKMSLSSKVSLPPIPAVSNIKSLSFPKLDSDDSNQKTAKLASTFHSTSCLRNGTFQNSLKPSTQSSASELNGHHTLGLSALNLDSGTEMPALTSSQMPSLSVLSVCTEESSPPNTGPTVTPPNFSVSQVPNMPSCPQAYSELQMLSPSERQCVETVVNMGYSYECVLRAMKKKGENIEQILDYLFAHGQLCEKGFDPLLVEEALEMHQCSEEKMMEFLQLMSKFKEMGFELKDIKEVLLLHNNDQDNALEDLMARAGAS
UniProt Q9BZL1: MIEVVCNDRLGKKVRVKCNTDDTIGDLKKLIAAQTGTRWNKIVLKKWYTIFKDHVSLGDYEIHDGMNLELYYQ
UniProt O43396: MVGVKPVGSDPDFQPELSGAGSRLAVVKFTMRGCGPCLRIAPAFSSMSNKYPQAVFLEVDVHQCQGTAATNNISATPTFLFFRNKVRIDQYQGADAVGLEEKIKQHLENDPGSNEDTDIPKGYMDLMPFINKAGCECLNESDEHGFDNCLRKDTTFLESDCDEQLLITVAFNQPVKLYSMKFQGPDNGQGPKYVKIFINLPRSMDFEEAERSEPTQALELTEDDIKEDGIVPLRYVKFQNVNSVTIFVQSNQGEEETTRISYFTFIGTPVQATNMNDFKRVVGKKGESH
UniProt Q5T4S7, whole entry, looked up: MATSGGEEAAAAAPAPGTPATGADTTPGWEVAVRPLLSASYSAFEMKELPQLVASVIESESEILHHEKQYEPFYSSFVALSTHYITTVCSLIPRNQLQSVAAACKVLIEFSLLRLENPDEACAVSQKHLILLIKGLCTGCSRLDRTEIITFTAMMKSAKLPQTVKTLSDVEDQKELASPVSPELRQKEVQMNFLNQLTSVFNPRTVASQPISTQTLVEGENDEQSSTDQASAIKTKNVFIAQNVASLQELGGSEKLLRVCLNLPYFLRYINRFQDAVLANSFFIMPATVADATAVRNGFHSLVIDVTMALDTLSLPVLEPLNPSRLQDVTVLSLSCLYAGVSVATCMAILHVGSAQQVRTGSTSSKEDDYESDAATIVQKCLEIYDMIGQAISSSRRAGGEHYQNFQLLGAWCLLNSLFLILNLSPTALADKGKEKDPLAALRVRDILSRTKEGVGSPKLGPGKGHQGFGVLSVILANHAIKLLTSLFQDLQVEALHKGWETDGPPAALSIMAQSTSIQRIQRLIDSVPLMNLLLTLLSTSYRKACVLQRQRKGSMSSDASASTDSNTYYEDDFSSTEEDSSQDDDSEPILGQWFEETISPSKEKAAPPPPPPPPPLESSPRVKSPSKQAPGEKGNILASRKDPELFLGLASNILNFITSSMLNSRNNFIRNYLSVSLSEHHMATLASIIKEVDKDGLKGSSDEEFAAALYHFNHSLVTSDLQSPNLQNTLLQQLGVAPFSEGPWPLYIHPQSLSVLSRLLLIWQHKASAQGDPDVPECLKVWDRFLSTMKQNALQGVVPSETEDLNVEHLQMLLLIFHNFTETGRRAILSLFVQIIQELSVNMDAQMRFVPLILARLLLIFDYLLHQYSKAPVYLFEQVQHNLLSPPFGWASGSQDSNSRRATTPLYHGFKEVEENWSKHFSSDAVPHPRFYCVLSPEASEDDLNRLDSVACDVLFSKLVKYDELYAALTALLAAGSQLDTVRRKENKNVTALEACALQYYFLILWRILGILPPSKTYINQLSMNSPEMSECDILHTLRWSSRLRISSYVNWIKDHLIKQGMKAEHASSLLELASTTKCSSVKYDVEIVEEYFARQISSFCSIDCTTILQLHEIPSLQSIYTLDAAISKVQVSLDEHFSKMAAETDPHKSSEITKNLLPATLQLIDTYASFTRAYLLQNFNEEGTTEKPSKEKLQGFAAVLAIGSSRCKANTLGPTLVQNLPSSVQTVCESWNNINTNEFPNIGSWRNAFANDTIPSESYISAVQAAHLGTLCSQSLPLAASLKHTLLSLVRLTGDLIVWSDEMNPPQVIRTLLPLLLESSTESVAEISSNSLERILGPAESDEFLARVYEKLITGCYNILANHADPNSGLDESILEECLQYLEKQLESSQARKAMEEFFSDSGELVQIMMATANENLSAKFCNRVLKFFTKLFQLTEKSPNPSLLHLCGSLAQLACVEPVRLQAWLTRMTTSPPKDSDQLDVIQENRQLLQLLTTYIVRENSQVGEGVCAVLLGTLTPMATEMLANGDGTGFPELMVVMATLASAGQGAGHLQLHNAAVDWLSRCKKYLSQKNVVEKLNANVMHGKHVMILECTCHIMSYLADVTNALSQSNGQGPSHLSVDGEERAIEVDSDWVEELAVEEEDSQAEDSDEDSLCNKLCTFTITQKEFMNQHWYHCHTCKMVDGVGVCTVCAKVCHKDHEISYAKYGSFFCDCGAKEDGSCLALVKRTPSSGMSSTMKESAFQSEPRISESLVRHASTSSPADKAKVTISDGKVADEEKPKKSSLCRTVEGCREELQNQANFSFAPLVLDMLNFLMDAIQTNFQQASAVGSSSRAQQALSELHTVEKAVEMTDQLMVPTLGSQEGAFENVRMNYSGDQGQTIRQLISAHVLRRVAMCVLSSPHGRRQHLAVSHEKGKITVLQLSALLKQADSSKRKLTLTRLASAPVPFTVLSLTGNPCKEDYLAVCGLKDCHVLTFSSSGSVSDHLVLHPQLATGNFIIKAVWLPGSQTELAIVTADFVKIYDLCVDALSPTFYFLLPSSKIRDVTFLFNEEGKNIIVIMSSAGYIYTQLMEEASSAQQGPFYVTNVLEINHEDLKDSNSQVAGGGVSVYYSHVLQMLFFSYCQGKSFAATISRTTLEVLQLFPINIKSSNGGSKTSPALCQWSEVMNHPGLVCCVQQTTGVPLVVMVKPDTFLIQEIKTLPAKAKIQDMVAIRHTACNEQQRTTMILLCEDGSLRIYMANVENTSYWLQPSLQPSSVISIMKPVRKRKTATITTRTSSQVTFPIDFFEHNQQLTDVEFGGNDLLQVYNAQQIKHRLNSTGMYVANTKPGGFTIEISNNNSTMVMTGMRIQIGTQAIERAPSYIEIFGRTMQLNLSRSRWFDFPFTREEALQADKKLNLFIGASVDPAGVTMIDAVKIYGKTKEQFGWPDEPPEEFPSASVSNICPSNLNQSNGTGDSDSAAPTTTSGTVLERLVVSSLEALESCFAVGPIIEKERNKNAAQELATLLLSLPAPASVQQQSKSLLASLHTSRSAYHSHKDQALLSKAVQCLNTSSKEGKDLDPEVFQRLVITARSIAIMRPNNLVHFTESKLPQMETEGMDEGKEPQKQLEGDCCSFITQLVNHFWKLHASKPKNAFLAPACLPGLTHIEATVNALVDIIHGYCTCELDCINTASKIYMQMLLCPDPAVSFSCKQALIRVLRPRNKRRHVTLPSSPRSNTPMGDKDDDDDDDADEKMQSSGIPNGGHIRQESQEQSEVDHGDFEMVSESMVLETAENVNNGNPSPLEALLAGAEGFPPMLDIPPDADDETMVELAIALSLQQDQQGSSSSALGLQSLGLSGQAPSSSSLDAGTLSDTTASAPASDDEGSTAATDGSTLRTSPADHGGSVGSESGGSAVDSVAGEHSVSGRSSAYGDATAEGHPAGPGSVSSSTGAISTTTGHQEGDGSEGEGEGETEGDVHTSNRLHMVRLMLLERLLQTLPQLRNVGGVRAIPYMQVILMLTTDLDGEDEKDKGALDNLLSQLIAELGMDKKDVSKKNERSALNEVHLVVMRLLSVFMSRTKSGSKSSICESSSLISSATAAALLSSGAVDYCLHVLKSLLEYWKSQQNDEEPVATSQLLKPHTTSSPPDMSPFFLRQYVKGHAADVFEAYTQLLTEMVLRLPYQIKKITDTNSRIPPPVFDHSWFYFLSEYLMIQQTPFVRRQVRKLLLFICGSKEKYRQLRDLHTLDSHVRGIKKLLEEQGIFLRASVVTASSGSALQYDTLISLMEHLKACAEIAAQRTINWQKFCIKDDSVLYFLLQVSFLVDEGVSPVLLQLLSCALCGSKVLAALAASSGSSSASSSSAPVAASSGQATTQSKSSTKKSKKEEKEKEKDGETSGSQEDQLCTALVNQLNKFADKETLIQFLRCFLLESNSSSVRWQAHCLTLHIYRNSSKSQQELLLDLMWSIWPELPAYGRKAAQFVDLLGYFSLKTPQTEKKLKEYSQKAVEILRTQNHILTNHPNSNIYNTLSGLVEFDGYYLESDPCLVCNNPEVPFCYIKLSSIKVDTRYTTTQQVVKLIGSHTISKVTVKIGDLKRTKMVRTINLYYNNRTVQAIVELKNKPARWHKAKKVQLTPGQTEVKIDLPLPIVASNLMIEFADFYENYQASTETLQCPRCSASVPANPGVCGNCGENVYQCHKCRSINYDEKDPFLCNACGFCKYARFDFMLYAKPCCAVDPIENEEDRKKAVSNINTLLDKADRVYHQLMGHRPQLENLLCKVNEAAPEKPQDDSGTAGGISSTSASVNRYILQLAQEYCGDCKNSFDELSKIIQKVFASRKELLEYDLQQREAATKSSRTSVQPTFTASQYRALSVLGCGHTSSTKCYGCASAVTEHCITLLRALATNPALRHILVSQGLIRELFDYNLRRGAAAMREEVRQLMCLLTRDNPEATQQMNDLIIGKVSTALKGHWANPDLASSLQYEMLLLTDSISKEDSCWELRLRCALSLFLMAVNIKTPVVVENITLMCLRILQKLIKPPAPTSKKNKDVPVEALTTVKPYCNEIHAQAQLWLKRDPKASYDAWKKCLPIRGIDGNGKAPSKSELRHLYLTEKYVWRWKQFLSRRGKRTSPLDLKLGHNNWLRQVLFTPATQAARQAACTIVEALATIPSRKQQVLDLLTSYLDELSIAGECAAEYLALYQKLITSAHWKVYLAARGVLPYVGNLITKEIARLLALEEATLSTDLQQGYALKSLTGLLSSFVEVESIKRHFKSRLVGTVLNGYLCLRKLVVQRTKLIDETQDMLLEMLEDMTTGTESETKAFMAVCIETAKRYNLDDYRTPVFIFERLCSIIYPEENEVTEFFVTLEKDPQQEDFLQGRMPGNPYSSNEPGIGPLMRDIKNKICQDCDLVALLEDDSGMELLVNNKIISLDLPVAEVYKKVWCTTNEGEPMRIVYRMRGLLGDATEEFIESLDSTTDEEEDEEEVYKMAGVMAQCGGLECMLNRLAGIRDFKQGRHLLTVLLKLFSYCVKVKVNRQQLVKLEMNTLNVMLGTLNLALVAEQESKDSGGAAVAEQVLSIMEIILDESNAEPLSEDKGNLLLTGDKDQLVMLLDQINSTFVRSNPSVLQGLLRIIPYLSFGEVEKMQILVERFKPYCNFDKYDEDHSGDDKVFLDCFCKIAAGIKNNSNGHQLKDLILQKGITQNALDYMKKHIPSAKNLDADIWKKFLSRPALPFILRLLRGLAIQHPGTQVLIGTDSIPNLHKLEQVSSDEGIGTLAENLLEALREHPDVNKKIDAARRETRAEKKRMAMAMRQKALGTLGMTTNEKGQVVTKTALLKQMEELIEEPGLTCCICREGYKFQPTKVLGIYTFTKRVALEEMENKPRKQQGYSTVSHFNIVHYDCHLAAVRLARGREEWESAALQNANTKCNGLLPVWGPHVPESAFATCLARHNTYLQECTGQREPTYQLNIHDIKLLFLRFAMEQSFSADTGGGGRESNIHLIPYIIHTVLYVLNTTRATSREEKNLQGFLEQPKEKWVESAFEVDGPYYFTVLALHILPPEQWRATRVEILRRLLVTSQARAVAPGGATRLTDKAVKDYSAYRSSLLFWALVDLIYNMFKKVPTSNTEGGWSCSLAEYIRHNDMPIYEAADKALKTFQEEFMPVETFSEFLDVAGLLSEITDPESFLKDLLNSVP

This is one part of the list.
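Note: competitive chemoproteomic profiling in live THP-1 cells with an iodoacetamide desthiobiotin (IA-DTB) probe, comparing probe-labelled peptide intensities in compound-treated cells against DMSO-treated controls.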

Compound in the assay: CC1Cc2ccccc2N1C(=O)C1CCCN(C1)C(=O)CCl (mixture of isomers) [TRIM25 ligand 11 (diastereomer mixture)]
Kind of assay: probe-labelled cysteine peptide fold change vs DMSO (competition) (log2 fold change); higher = less target engagement (more negative = stronger competition). The conditions noted are these: 50 µM; THP-1; incubation time: 4 h.
For “UBA2_Q9UBT2_161_GVTECYECHPKPTQR (UniProt Q9UBT2)”, the “probe-labelled cysteine peptide fold change” value was -0.0622.
Regarding “UBR2_Q8IWV8_99_LEQANKPSHLCGR (UniProt Q8IWV8)”, the “probe-labelled cysteine peptide fold change” value was -0.102.
To “UBR3_Q6ZT12_288_DLTSGLGENACVK (UniProt Q6ZT12)” belongs -0.193; to “UAP1_Q16222_251_GIWSIHVYCVDNILVK (UniProt Q16222)”, -0.194; to “UBA7_P41226_829_CQNYGIPPVNR (UniProt P41226)”, -0.0864.
The value for “UBAP1_Q9NZ09_434_GENIEQILDYLFAHGQLCEK (UniProt Q9NZ09)” was -0.0923.
To “TXNRD1_Q16881_214_WGLGGTCVNVGCIPKK (UniProt Q16881)” belongs -0.152; to “UBA3_Q8TBC4_139_AEVAAEFLNDRVPNCNVVPHFNK (UniProt Q8TBC4)”, 0.0914; to “UBE2K_P61086_92_IWHPNISSVTGAICLDILK (UniProt P61086)”, 0.238.
Take “UBR2_Q8IWV8_336_ILCQVGLQEGPDGENSSLVDR (UniProt Q8IWV8)”: the “probe-labelled cysteine peptide fold change” value is -0.00301.
To “U2SURP_O15042_918_EKDECTPTRK (UniProt O15042)” belongs -0.0524; to “UBL5_Q9BZL1_6_MIEVVCNDR (UniProt Q9BZL1)”, 0.106; to “UBASH3B_Q8TF42_130+135_AHNIFPHITLCQFFMCEDSKVDALGEALQTTVSR (UniProt Q8TF42)”, -0.326.
With “UBR5_O95071_1093_LLCDSVVLQPYLR (UniProt O95071)”, the “probe-labelled cysteine peptide fold change” value was -0.0369.
“TXNL1_O43396_135+137_AGCECLNESDEHGFDNCLR (UniProt O43396)”: the “probe-labelled cysteine peptide fold change” value is -0.302.
Take “UBE4A_Q14139_175_HIFCYLYSCFQR (UniProt Q14139)”: the “probe-labelled cysteine peptide fold change” value turned out to be 0.127.
In the case of “UBA52_P62987_115_CGHTNNLRPK (UniProt P62987)”, the “probe-labelled cysteine peptide fold change” value is -0.285.
Regarding “UACA_Q9BZF9_980_ELDTIQECIK (UniProt Q9BZF9)”, the “probe-labelled cysteine peptide fold change” value was -0.243.
As to “UBA7_P41226_996_VLVLELSCEGDDEDTAFPPLHYEL (UniProt P41226)”, the “probe-labelled cysteine peptide fold change” value was -0.106.
The value for “UBA7_P41226_289_SLDTALLQPHVVAQSSQEVHHAHCLHQAFCALHK (UniProt P41226)” was -0.293.
For “UAP1L1_Q3KQV9_57_AAEACAR (UniProt Q3KQV9)”, the “probe-labelled cysteine peptide fold change” value came to 0.171.
“UBR2_Q8IWV8_1717_GNPLHLCK (UniProt Q8IWV8)”: the “probe-labelled cysteine peptide fold change” value was -0.289.
For “UBE2O_Q9C0C9_585_SNDLFPVHHLDNNEFCPGDFVVDKR (UniProt Q9C0C9)”, the “probe-labelled cysteine peptide fold change” value is -0.0665.
With “U2SURP_O15042_320_NCGFVAFMNR (UniProt O15042)”, the “probe-labelled cysteine peptide fold change” value was determined as 0.0271.
Take “UBE3A_Q05086_760_YLFRPEEIELLICGSR (UniProt Q05086)”: the “probe-labelled cysteine peptide fold change” value is 0.0225.
The value for “TXNDC5_Q8NBS9_217_FFAPWCGHCK (UniProt Q8NBS9)” was -0.389; that for “UBAP1_Q9NZ09_161_ADFNLADFECEEDPFDNLELK (UniProt Q9NZ09)” was -0.249; that for “TXNL1_O43396_135+137+149_AGCECLNESDEHGFDNCLR (UniProt O43396)” was -0.634.
“UBL4A_P11441_13_ECSLQVPEDELVSTLK (UniProt P11441)”: the “probe-labelled cysteine peptide fold change” value worked out at 0.132.
Consider “UBR4_Q5T4S7_4838+4841_QMEELIEEPGLTCCICR (UniProt Q5T4S7)”, for which the “probe-labelled cysteine peptide fold change” value stood at 0.214.
“UBA1_P22314_711_SLVLQRPQTWADCVTWACHHWHTQYSNNIR (UniProt P22314)”: the “probe-labelled cysteine peptide fold change” value worked out at 0.142.
The value for “UBR4_Q5T4S7_4890_QQGYSTVSHFNIVHYDCHLAAVR (UniProt Q5T4S7)” was 0.16; that for “UBA1_P22314_481_YFLVGAGAIGCELLK (UniProt P22314)” was 0.0456.
Take “TXNRD2_Q9NNW7_54_DYDLLVVGGGSGGLACAK (UniProt Q9NNW7)”: the “probe-labelled cysteine peptide fold change” value was -0.106.
The value for “UBR1_Q8IWV7_1603_NSLIELPDDYSCLLNQASHFR (UniProt Q8IWV7)” was -0.181.
